Measured values as given in patent publication US20230279061A1, “ISOLATED PEPTIDE FOR A PEPTIDE COACERVATE, AND METHODS OF USE THEREOF” (NANYANG TECHNOLOGICAL UNIVERSITY, priority 2020, published 2023).
Not every detail of the peptide structures is certain; ends, links or a residue may be inferred. Where a SMILES comes first, the peptide text is derived from it. The star is where a group is joined. X1 = O=C(OCCSSCCOC(=O)*)c1ccccc1

Key:
[1] = Turbidity measurement of phase separation (coacervation) at various pH; type: physicochemical
Excerpt: The phase separation behavior of HBpep-K and HBpep-SR peptides at various pH was monitored turbidity measurements using a UV-Vis spectrometer (UV-2501PC, Shimadzu, Japan). The absorbance at 600 nm (A600) was used to calculate the relative turbidity (Lim, Z.W. et al., Bioconjugate Chem., 2018, 29, 2176) as: […]

[2] = In vitro FITC-insulin release in the presence of DTT; details: 10 mM DTT versus absence of DTT
[3] = GSH-induced reduction of coacervates (HPLC); details: HBpep-SP versus HBpep-SA
HepG2 cells [4] = test: Delivery of proteins and peptides into cells (fluorescence microscopy); type: cell-based; details: HBpep-SP versus HBpep-SA
Method: For protein delivery into cells, 10^5 of cells were suspended in 1 mL of Dulbecco’s modified Eagle medium (DMEM) supplemented with 10% of fetal bovine serum, 100 units/mL of penicillin and 100 µg/mL of streptomycin, and then transferred into […] culture dishes. After 24 hours of incubation at 37° C. with 5% of CO2, the media was replaced with 900 µL of Opti-MEM. Then, 100 µL of freshly prepared protein-loaded HBpep-SA or HBpep-SP coacervate suspensions (0.1 mg/mL of cargos, 1 mg/mL of modified peptides) were added into the media. After 4 hours of incubation, the media was removed and the cells were washed with PBS twice before adding 1 mL of fresh media (DMEM, 10% FBS, antibiotics). The cells were incubated for another 20 hours and then washed twice at pH 5.0 in phosphate buffer to remove any coacervates that had not entered the cells, before being imaged under the fluorescence microscope (AxioObserver.Z1, Zeiss, Germany).

HepG2 cells [5] = test: Luciferase-encoding mRNA transfection; type: cell-based; details: optimal peptide concentration, HepG2, versus PEI, lipofectamine 2000 and 3000
HEK293 cells = test: Luciferase-encoding mRNA transfection; type: cell-based; details: HEK293, versus lipofectamine 2000
HepG2 cells [6] = test: Internalization study with endocytosis inhibitors and low temperature (FACS, microscopy); type: cell-based; details: MβCD 2.5 mM

CC(C)C[C@H](NC(=O)CNC(=O)[C@H](Cc1c[nH]cn1)NC(=O)CNC(=O)[C@H](Cc1ccc(O)cc1)NC(=O)[C@@H]1CCCN1C(=O)CNC(=O)[C@H](Cc1c[nH]cn1)NC(=O)CNC(=O)[C@H](CCCCNC(=O)OCCSSCCOC(=O)c1ccccc1)NC(=O)[C@H](Cc1ccc(O)cc1)NC(=O)[C@@H]1CCCN1C(=O)CNC(=O)[C@H](Cc1c[nH]cn1)NC(=O)CNC(=O)[C@H](Cc1ccc(O)cc1)NC(=O)[C@@H](NC(=O)CNC(=O)[C@H](Cc1c[nH]cn1)NC(=O)CNC(=O)[C@H](Cc1ccc(O)cc1)NC(=O)[C@@H](NC(=O)CNC(=O)[C@H](Cc1c[nH]cn1)NC(=O)CN)C(C)C)C(C)C)C(=O)N[C@@H](Cc1ccc(O)cc1)C(=O)N[C@@H](Cc1c[nH]c2ccccc12)C(=O)O [HBpep-SP] (H-GHGVYGHGVYGHGPYK(X1)GHGPYGHGLYW-OH)
pH at which the peptide phase separates [1]: 6.5 pH | FITC-insulin release rate in the presence of DTT [2]: increased significantly | rate of peptide reduction by GSH [3]: faster reduction rate | EGFP cargo release rate in cells (HepG2 cells [4]): faster release rate than HBpep-SA | luciferase mRNA transfection efficiency (HepG2 cells [5]): higher than PEl and lipofectamine 3000, but slightly lower than lipofectamine 2000 | luciferase mRNA transfection efficiency (HEK293 cells): comparable transfection efficiency with lipofectamine 2000 | uptake after pre-treatment with methyl-β-cyclodextrin (HepG2 cells [6]): almost no uptake
